To fix the notation:
B1: LNC2 (64 aa) (peptide)
peptide: DEIVKELRSRYNISTEKSPILKMHIDGDLKGSSVGYRKLEIDFSKRENSKLSVIEFLSYKPAKK
B2: LNC1 (64 aa), LNC1 core of Lpl1 of S. aureus (peptide)
peptide: TAKGHYFVTTFYRNGKLPDEKNYKIEMKNNKIILLDEVKDDKLKQKIENFKFFGQYANLKELRK

Results are given in words; binding and its absence hold for the method and conditions named. Some binding calls cover weakened binding; strength is not graded here.

The assay deals with human heat shock protein Hsp90α (human) (UniProt P07900). The experiment in a line: dot blot assay, direct interaction with Hsp90α.
Regarding RSRYNISTEKSPILKMHIDGDLKGSSVGYRKLEIDFSK [MNC3 (38aa)], the binding result is given as “binds”.
Then GHYFVTTFY [L13 peptide], with “binds”; and B1, with “binds”; and B2, with “binds”.
In the case of TAKGHYFVTTFYRNG [L15 peptide] it was “binds”.

(Values after EP4201483A1, “LPL1 DERIVED IMMUNE ENHANCING PEPTIDES” (priority 2021, dated 2023).)
